Results published in doi:10.1101/122853.
Results are given in words; binding and its absence hold for the method and conditions named. Binding seen in cells or lysates may run through a third protein. Some results given as binding are weak or reduced against the parent protein; the word gives no strength. Where a sequence is shown, tags or fusion partners need not be part of it.

T1: MYC-TMEM18-YC (UniProt Q3TUD9)
T1 sequence: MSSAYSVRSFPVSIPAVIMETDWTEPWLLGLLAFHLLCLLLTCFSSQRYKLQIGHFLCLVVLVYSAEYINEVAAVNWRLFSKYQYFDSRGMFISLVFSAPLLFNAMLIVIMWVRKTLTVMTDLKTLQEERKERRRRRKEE

T2: YN-FLAG-NDC1 (UniProt Q8VCB1)
T2 sequence: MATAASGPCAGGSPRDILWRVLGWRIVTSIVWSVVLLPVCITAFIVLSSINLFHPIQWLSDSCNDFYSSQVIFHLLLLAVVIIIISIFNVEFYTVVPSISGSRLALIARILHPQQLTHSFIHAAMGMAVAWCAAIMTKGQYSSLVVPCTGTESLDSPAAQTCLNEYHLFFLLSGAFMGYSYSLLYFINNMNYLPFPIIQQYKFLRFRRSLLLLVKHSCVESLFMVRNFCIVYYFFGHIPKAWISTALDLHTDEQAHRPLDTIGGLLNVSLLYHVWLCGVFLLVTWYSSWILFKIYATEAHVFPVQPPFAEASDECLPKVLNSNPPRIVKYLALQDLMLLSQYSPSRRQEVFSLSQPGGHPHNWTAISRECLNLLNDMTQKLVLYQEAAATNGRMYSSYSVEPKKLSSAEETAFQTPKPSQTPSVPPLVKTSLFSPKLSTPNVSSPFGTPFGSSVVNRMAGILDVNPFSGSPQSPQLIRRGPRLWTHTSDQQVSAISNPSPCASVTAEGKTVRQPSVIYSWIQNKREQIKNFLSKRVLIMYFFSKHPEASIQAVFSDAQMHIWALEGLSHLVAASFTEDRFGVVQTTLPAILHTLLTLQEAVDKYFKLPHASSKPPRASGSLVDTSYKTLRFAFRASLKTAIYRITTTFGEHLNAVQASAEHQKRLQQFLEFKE

B1: YN-FLAG-NDC1 (protein, UniProt Q8VCB1 1-673)
chain: T2 sequence
B2: YN-FLAG-AAAS (protein, UniProt P58742 1-546)
chain: MCSLGLFPPPPPRGQVTLYEHNNELVTGNSYESPPPDFRGQWINLPVLHLTKDPLKAPGRLDHGTRTAFIHHREQVWKRCINVWHDVGLFGVLNEIANSEEEVFEWVKTACSWALALCGRASSLHGSLFPHLSLRSEDLIAEFAQVTNWSSCCLRVFAWHPHTNKFAVALLDDSIRVYNANSTIVPSLKHRLQRNVAALAWKPLSASVLAVACQSCILIWTLDPTSLSTRPSSGCAQVLSHPGHTPVTSLAWAPNGGWLLSASPVDAVILVWDVSTETCVPLPWFRGGGVTNLLWSPDGSKVLATTPSAVFRVWEAQMWTCEAWPTLSGRCQTGCWSPDGNRLLFTVLGEALIYSLSFPERCGTGKGHVGGAKSATIVADLSETTIQTPDGEERLGGEAHSMVWDPSGERLAVLMKGNPQVQDGNPVILLFRTRNSPVFELLPCGIIQGEPGAQAQLITFHPSFNKGALLSVCWSTGRITHIPLYFVNAQFPRFSPVLGRAQEPPAGGGGSIHEVPLFTETSPTSAPWDPLPGQSSAQPHSPHSHL
B3: YC-AAAS (protein, UniProt P58742 1-546)
chain: B2 chain
B4: GFP tagged NDC1 (protein, UniProt Q8VCB1 1-673)
chain: T2 sequence
B5: GFP tagged AAAS (protein, UniProt P58742 1-546)
chain: B2 chain
B6: YN-FLAG-NUP35 (protein, UniProt Q8R4R6 1-325)
chain: MAAFAVDPQAPTLGSEPMMLGSPTSPKTGANAQFLPGFLMGDLPAPVTPQPRSISGPSVGVMEMRSPLLAGGSPPQPVVPAHKDKSGAPPVRSIYDDISSPGLGSTPLTSRRQANISLLQSPLVGATTPVPGQSMFSPANIGQPRKTTLSPAQLDPFYTQGDSLTSEDHLDDTWVTVFGFPQASASYILLQFAQYGNILKHVMSNTGNWMHIRYQSKLQARKALSKDGRIFGESIMIGVKPCIDKNVMENSDRGVLSSPSLAFTTPIRTLGTPTQSGSTPRVSTMRPLATAYKASTSDYQVISDRQTPKKDESLVSRAMEYMFGW

What was measured:
[1] = biological target: T1, MYC-TMEM18-YC; assay: split reporter
[2] = biological target: T2, YN-FLAG-NDC1; assay: split reporter
[3] = biological target: FLAG-tagged TMEM18 (UniProt Q3TUD9); assay: co-IP

Binder | binding [1] | binding [3] | further results
B1 | binds |  | 
B2 | binds |  | 
B3 |  |  | binding [2]: binds
B4 |  | binds | 
B5 |  | binds | 
B6 | no binding |  | 
